Data as given in PubChem BioAssay AID1259308 (NCATS, 2017).

Purpose: 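Genes whose loss raises luciferase production in HEK293 cells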 (primary screen)
System: human HEK293 embryonic kidney cells stably expressing firefly luciferase (HEK-CMV-Luc2-Hygro)
Reagent: single siRNA against human genes, 0.8 pmol siRNA per well
Duration: 72 h
Detection: 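Reporter luminescence and viable-cell signal on separate replicate plates, given as percent of non-targeting control and median/MAD z-scores, plus per-cell luciferase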
Scale: total luciferase, z-score and total luciferase, % of control: higher = more reporter protein produced; luciferase per cell, z-score: higher = more reporter output per viable cell; viable cells, % of control: higher = more viable cells
Active means: 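An siRNA counts as active if its total luciferase robust z-score exceeds 3; genes with two or more such siRNAs out of three were retested with fresh siRNAs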
Meaning of the calls: active = raised luciferase; inactive = no rise
Shown is an unselected part of about 59,000 reagents. About 1,510 of them (2.6%) were called active. 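Calls use total luciferase alone and ignore viability, so some active siRNAs may act by altering cell number.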 Unmarked entries are inactive. Reagents against one gene are numbered here.

gene symbol | reagent | total luciferase, z-score | total luciferase, % of control | luciferase per cell, z-score | viable cells, % of control
ARHGEF4 (Rho guanine nucleotide exchange factor 4) | 1 | 1.99 | 121 | 1.32 | 95.8
ARHGEF4 (Rho guanine nucleotide exchange factor 4) | 2 | -1.51 | 51.8 | -1.5 | 86
ARHGEF4 (Rho guanine nucleotide exchange factor 4) | 3 | -0.0502 | 80.9 | -0.38 | 99.9
FEM1C (fem-1 homolog C) | 1 | 0.0517 | 82.9 | -0.608 | 109
FEM1C (fem-1 homolog C) | 2 | -0.876 | 64.5 | -0.918 | 91.7
FEM1C (fem-1 homolog C) | 3 | 0.954 | 101 | 0.415 | 101
CADM1 (cell adhesion molecule 1) | 1 | 0.125 | 84.4 | -0.68 | 113
CADM1 (cell adhesion molecule 1) | 2 | 0.801 | 97.8 | 1.04 | 83
CADM1 (cell adhesion molecule 1) | 3 | 1.46 | 111 | 0.536 | 108
TACO1 (translational activator of cytochrome c oxidase I) | 1 | 0.0731 | 83.3 | -0.0861 | 95.3
TACO1 (translational activator of cytochrome c oxidase I) | 2 | -1.2 | 58.1 | -1.34 | 92.4
TACO1 (translational activator of cytochrome c oxidase I) | 3 | 1.3 | 108 | 0.726 | 99.4
VEGFC (vascular endothelial growth factor C) | 1 | 1.03 | 102 | 0.649 | 96.5
VEGFC (vascular endothelial growth factor C) | 2 | -0.777 | 66.4 | -0.16 | 77.4
VEGFC (vascular endothelial growth factor C) | 3 | 0.18 | 85.5 | 1.44 | 65.4
CCDC107 (coiled-coil domain containing 107) | 1 | -0.12 | 79.5 | 0.168 | 85
CCDC107 (coiled-coil domain containing 107) | 2 | -0.67 | 68.6 | -0.156 | 79.8
CCDC107 (coiled-coil domain containing 107) | 3 | 0.344 | 88.7 | 0.816 | 80
NPC1L1 (NPC1 like intracellular cholesterol transporter 1) | 1 | 2.69 | 135 | 1.53 | 101
NPC1L1 (NPC1 like intracellular cholesterol transporter 1) | 2 | 1.92 | 120 | 0.882 | 106
NPC1L1 (NPC1 like intracellular cholesterol transporter 1) | 3 | 0.000571 | 81.9 | -0.234 | 97.3

Next part, starting with the last 3 of the part before.
gene symbol | reagent | total luciferase, z-score | total luciferase, % of control | luciferase per cell, z-score | viable cells, % of control
NPC1L1 (NPC1 like intracellular cholesterol transporter 1) | 1 | 2.69 | 135 | 1.53 | 101
NPC1L1 (NPC1 like intracellular cholesterol transporter 1) | 2 | 1.92 | 120 | 0.882 | 106
NPC1L1 (NPC1 like intracellular cholesterol transporter 1) | 3 | 0.000571 | 81.9 | -0.234 | 97.3
NT5C3A (5'-nucleotidase, cytosolic IIIA) | 1 | 0.348 | 88.8 | -0.305 | 108
NT5C3A (5'-nucleotidase, cytosolic IIIA) | 2 | -0.22 | 77.5 | 0.259 | 80.9
NT5C3A (5'-nucleotidase, cytosolic IIIA) | 3 | 0.49 | 91.6 | 1.48 | 69.4
ANKRD34A (ankyrin repeat domain 34A) | 1 | 1.61 | 114 | 1.87 | 77.8
ANKRD34A (ankyrin repeat domain 34A) | 2 | -0.463 | 72.7 | -0.444 | 91.3
ANKRD34A (ankyrin repeat domain 34A) | 3 | 0.923 | 100 | 0.193 | 106
RAD51-AS1 (RAD51 antisense RNA 1) | 1 | -1.34 | 55.2 | -1.29 | 86.6
RAD51-AS1 (RAD51 antisense RNA 1) | 2 | -0.136 | 79.2 | -0.098 | 90.8
RAD51-AS1 (RAD51 antisense RNA 1) | 3 | -0.8 | 66 | -1.22 | 102
RPLP2P1 (ribosomal protein lateral stalk subunit P2 pseudogene 1) | 1 | 0.385 | 89.5 | 0.256 | 93.5
RPLP2P1 (ribosomal protein lateral stalk subunit P2 pseudogene 1) | 2 | 0.487 | 91.6 | 0.401 | 92.1
RPLP2P1 (ribosomal protein lateral stalk subunit P2 pseudogene 1) | 3 | 4.58 (active) | 173 | 2.19 | 109
TARS3 (threonyl-tRNA synthetase 3) | 1 | 2.19 | 125 | 1.5 | 94.5
TARS3 (threonyl-tRNA synthetase 3) | 2 | -0.516 | 71.6 | -0.689 | 96
TARS3 (threonyl-tRNA synthetase 3) | 3 | -0.0888 | 80.1 | -0.0874 | 91.6
TP53BP2 (tumor protein p53 binding protein 2) | 1 | 2.51 | 132 | 1.7 | 94
TP53BP2 (tumor protein p53 binding protein 2) | 2 | 1.86 | 119 | 1.72 | 84.4
TP53BP2 (tumor protein p53 binding protein 2) | 3 | 0.772 | 97.2 | 0.0833 | 106
TMEM183A (transmembrane protein 183A) | 1 | -1.57 | 50.8 | -1.77 | 90.5
TMEM183A (transmembrane protein 183A) | 2 | 1.1 | 104 | 0.695 | 96.5
TMEM183A (transmembrane protein 183A) | 3 | -0.421 | 73.5 | -0.366 | 90.5
VTI1B (vesicle transport through interaction with t-SNAREs 1B) | 1 | -1.47 | 52.6 | -0.39 | 65.2
VTI1B (vesicle transport through interaction with t-SNAREs 1B) | 2 | 1.21 | 106 | 2.5 | 61.3
VTI1B (vesicle transport through interaction with t-SNAREs 1B) | 3 | -0.116 | 79.6 | -0.367 | 98
GAD1 (glutamate decarboxylase 1) | 1 | 0.69 | 95.6 | 0.14 | 103
GAD1 (glutamate decarboxylase 1) | 2 | -0.126 | 79.4 | 0.601 | 75.7
GAD1 (glutamate decarboxylase 1) | 3 | -0.226 | 77.4 | -0.92 | 110
MCF2L2 (MCF.2 cell line derived transforming sequence-like 2) | 1 | -0.687 | 68.2 | -0.957 | 98.1
MCF2L2 (MCF.2 cell line derived transforming sequence-like 2) | 2 | -0.614 | 69.7 | -0.905 | 98.8
MCF2L2 (MCF.2 cell line derived transforming sequence-like 2) | 3 | -0.0387 | 81.1 | 2.81 | 43.2
PTBP1 (polypyrimidine tract binding protein 1) | 1 | 1.89 | 119 | 1.38 | 92.9
PTBP1 (polypyrimidine tract binding protein 1) | 2 | 0.489 | 91.6 | -0.271 | 110
PTBP1 (polypyrimidine tract binding protein 1) | 3 | 1.15 | 105 | 0.669 | 98.2
ECT2 (epithelial cell transforming 2) | 1 | -0.606 | 69.8 | -1 | 102
ECT2 (epithelial cell transforming 2) | 2 | 0.426 | 90.4 | 0.661 | 84.8
ECT2 (epithelial cell transforming 2) | 3 | -0.551 | 70.9 | -0.797 | 97.8
